Data source: PubChem BioAssay AID1259254 (NCATS, 2017)
This is an unselected part of about 59,000 deposited reagents. About 1,550 of all reagents (2.6%) count as active. 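G2 share is only a proxy for re-replication; each gene was hit by three separate siRNAs, and active genes were retested.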 Entries without a mark were called inactive. Reagents against one gene are numbered here. Not all columns of the deposit are shown. The record does not give: the amount of reagent.

Purpose: 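Gene knock-downs that lead to re-replication, shown by excess G2 DNA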 (primary screen)
Cell system: human HCT116 colorectal cancer cells
Reagents: single siRNA against human genes
Time to read-out: 3 days
Detection: 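Imaged Hoechst DNA stain sorts each cell into a cycle phase by DNA amount; per plate, G2 fraction set to 0% for non-targeting and 100% for GMNN siRNA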
Scale: G2 robust z-score: higher = more G2 cells, more excess DNA replication
Rule for the call: 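Active siRNAs have a G2 robust z of 5 or more median absolute deviations over the median, which in these data means about 38% or higher of GMNN control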

gene symbol | reagent | G2 robust z-score
CRYGD (crystallin gamma D) | 1 | 0.965
CRYGD (crystallin gamma D) | 2 | 0.621
CRYGD (crystallin gamma D) | 3 | 6.69 (active)
HAMP (hepcidin antimicrobial peptide) | 1 | -0.903
HAMP (hepcidin antimicrobial peptide) | 2 | 0.0745
HAMP (hepcidin antimicrobial peptide) | 3 | -0.0297
CTSB (cathepsin B) | 1 | -0.407
CTSB (cathepsin B) | 2 | -0.815
CTSB (cathepsin B) | 3 | -0.708
TAF1B | 1 | 3.22
TAF1B | 2 | 2.08
TAF1B | 3 | -0.119
MYO5C (myosin VC) | 1 | 0.302
MYO5C (myosin VC) | 2 | -1.3
MYO5C (myosin VC) | 3 | 0.146
NOP9 (NOP9 nucleolar protein) | 1 | -0.318
NOP9 (NOP9 nucleolar protein) | 2 | -0.0681
NOP9 (NOP9 nucleolar protein) | 3 | -0.113
RAB3IP (RAB3A interacting protein) | 1 | 6.26 (active)
RAB3IP (RAB3A interacting protein) | 2 | -1.26
RAB3IP (RAB3A interacting protein) | 3 | 0.53
EIF2S1 (eukaryotic translation initiation factor 2 subunit alpha) | 1 | 3.47
EIF2S1 (eukaryotic translation initiation factor 2 subunit alpha) | 2 | 5.45 (active)
EIF2S1 (eukaryotic translation initiation factor 2 subunit alpha) | 3 | 4.25

As entered above:
EIF2S1 (eukaryotic translation initiation factor 2 subunit alpha) #1, G2 robust z-score → 3.47
Entry of HAMP (hepcidin antimicrobial peptide) #2 under “G2 robust z-score”: 0.0745
Result for TAF1B #1 in “G2 robust z-score”: 3.22
For “G2 robust z-score”, TAF1B #3 is entered as -0.119
MYO5C (myosin VC) #2, G2 robust z-score: -1.3
MYO5C (myosin VC) #3, G2 robust z-score = 0.146

Further results follow:
gene symbol | reagent | G2 robust z-score
ASZ1 | 1 | -0.147
ASZ1 | 2 | 1.41
ASZ1 | 3 | -0.044
TMEM39B (transmembrane protein 39B) | 1 | 0.679
TMEM39B (transmembrane protein 39B) | 2 | 0.988
TMEM39B (transmembrane protein 39B) | 3 | -0.303
FAM9C (family with sequence similarity 9 member C) | 1 | -0.241
FAM9C (family with sequence similarity 9 member C) | 2 | -0.37
FAM9C (family with sequence similarity 9 member C) | 3 | -0.212
FTHL18P (ferritin heavy chain like 18, pseudogene) | 1 | 5.35 (active)
FTHL18P (ferritin heavy chain like 18, pseudogene) | 2 | 1.53
FTHL18P (ferritin heavy chain like 18, pseudogene) | 3 | 0.316
ESPL1 (extra spindle pole bodies like 1, separase) | 1 | 11.1 (active)
ESPL1 (extra spindle pole bodies like 1, separase) | 2 | 10.5 (active)
ESPL1 (extra spindle pole bodies like 1, separase) | 3 | 16.3 (active)
PITHD1 (PITH domain containing 1) | 1 | -0.379
PITHD1 (PITH domain containing 1) | 2 | 0.104
PITHD1 (PITH domain containing 1) | 3 | 0.0151
SHISA2 (shisa family member 2) | 1 | -0.635
SHISA2 (shisa family member 2) | 2 | -0.302
SHISA2 (shisa family member 2) | 3 | 1.91
INF2 (inverted formin 2) | 1 | -0.208
INF2 (inverted formin 2) | 2 | 0.229
INF2 (inverted formin 2) | 3 | -0.715
TTC5 (tetratricopeptide repeat domain 5) | 1 | -0.542
TTC5 (tetratricopeptide repeat domain 5) | 2 | 8.22 (active)
TTC5 (tetratricopeptide repeat domain 5) | 3 | 1.64
C14orf180 (chromosome 14 open reading frame 180) | 1 | 2.1
C14orf180 (chromosome 14 open reading frame 180) | 2 | -0.0588
C14orf180 (chromosome 14 open reading frame 180) | 3 | 1.8
AGO4 (argonaute RISC component 4) | 1 | -1.16
AGO4 (argonaute RISC component 4) | 2 | 8.62 (active)
AGO4 (argonaute RISC component 4) | 3 | -0.775
DALRD3 (DALR anticodon binding domain containing 3) | 1 | 0.583
DALRD3 (DALR anticodon binding domain containing 3) | 2 | -1.14
DALRD3 (DALR anticodon binding domain containing 3) | 3 | 1.62
ZNF81 (zinc finger protein 81) | 1 | 0.786
ZNF81 (zinc finger protein 81) | 2 | -0.781
ZNF81 (zinc finger protein 81) | 3 | 0.141
AQP11 (aquaporin 11) | 1 | 0.783
AQP11 (aquaporin 11) | 2 | 1.7
AQP11 (aquaporin 11) | 3 | 5.11 (active)
PIK3R1 (phosphoinositide-3-kinase regulatory subunit 1) | 1 | 0.256
PIK3R1 (phosphoinositide-3-kinase regulatory subunit 1) | 2 | 0.395
PIK3R1 (phosphoinositide-3-kinase regulatory subunit 1) | 3 | -1.32
